PubChem BioAssay AID652243 – Drosophila RNAi Screening Center, 2013
The deposit covers about 24,000 reagents; this is an unselected part of those that have a named target and a result. Of all reagents, 246 (1%) were called active. 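Plates not normalised; calls are printed but the firefly/Renilla ratio behind them is not deposited; fold cut for lowering reported inconsistently.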 Raw values are not corrected between plates. Names joined by + are all predicted targets of the reagent. Not given: the amount of reagent.

Purpose: 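Fly genes required for human androgen receptor driven transcription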 (primary screen)
Cell system: Drosophila S2R+ cells
Knock-down reagent: long dsRNA against Drosophila genes
Time to read-out: 72 h (48 h, then 24 h hormone)
Conditions: synthetic androgen R1881 at 10 nM for 24 h
Measured: 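Firefly light from an androgen-responsive reporter and Renilla control light per well, raw and unnormalised, for each of two replicates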
Reading the numbers: firefly reporter light: higher = more light from androgen-responsive reporter; Renilla control light: higher = more constitutive control signal (cell number, transfection)
Active means: 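Across duplicate plates, a knock-down whose log firefly/Renilla ratio shifted a set fold down or up from the GFP/LacZ control mean was a hit; the downward cut appears as both 1.5 and 3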
Meaning of the calls: active = hit: reporter lowered or raised; inactive = no hit

gene	amplicon	firefly reporter light, replicate 1	firefly reporter light, replicate 2	Renilla control light, replicate 1	Renilla control light, replicate 2	outcome
GlcT	DRSC04525	9.03e5	9.91e5	1.44e6	1.06e6	inactive
GlcT	DRSC27991	6.26e5	4.17e5	1.59e6	1.17e6	inactive
Tep5Psi	DRSC02183	1.55e5	1.39e5	1.37e6	2.17e6	inactive
Tep5Psi	DRSC02184	1.43e5	2.30e5	1.74e6	2.20e6	inactive
Vajk3	DRSC01883	9.20e5	9.54e5	1.96e6	2.03e6	inactive
Vajk3	DRSC25405	5.86e5	7.29e5	8.94e5	1.21e6	inactive
ND-AGGG + CG40472	DRSC37805	8.48e5	8.65e5	1.96e6	2.20e6	inactive
CG31675	DRSC01825	1.51e5	1.73e5	5.67e5	4.24e5	inactive
CG31675	DRSC26340	3.52e5	2.91e5	6.49e5	6.14e5	inactive
CG13814 (retired record)	DRSC10069	2.70e5	2.39e5	2.62e6	2.80e6	inactive
Ir25a	DRSC00462	54530	80284	4.85e5	7.45e5	inactive
Ir25a	DRSC26910	3.34e5	2.38e5	9.32e5	5.72e5	inactive
p	DRSC16560	90574	63006	2.53e6	1.39e6	inactive
p	DRSC27891	8.33e5	5.33e5	2.42e6	1.54e6	inactive
nonA	DRSC20357	3.64e5	4.25e5	3.98e6	3.69e6	inactive
nonA	DRSC27455	1.95e5	2.62e5	7.64e5	9.91e5	active
Alms1b + Alms1a	DRSC18559	87222	1.28e5	6.85e5	9.47e5	inactive
Alms1b + Alms1a	DRSC27416	2.97e5	2.71e5	7.24e5	9.08e5	inactive
mei-W68	DRSC07649	45979	98908	4.62e5	8.97e5	inactive
Fsn	DRSC06875	6.23e5	5.26e5	2.11e6	2.32e6	inactive
Fsn	DRSC27704	2.69e5	1.90e5	4.98e5	5.75e5	inactive
byn	DRSC11332	2.68e5	3.17e5	3.67e6	3.21e6	inactive
byn	DRSC29142	4.99e5	7.27e5	9.17e5	1.20e6	inactive
Acsf2	DRSC02172	1.23e5	1.03e5	1.22e6	8.16e5	inactive
Acsf2	DRSC27832	1.61e5	1.43e5	4.88e5	4.68e5	inactive
Hmbs	DRSC08632	7.93e5	9.87e5	1.29e6	1.33e6	inactive
Tsp42Ed	DRSC05940	3.92e5	3.69e5	1.70e6	1.67e6	inactive
CG4230	DRSC02740	5.50e5	6.78e5	1.23e6	1.17e6	inactive
Nadk2	DRSC07072	1.06e6	1.06e6	1.78e6	1.98e6	inactive
U4-U6-60K	DRSC10624	40890	60881	4.40e5	5.85e5	inactive
thr	DRSC07706	1.06e6	7.41e5	2.16e6	1.52e6	inactive
CG14411	DRSC19597	4.72e5	2.46e5	2.75e6	1.95e6	inactive
CG14411	DRSC29396	4.09e5	4.92e5	1.10e6	1.10e6	inactive
CG7126	DRSC16201	76040	90103	8.76e5	1.13e6	inactive
CG7126	DRSC25839	3.92e5	3.62e5	1.41e6	1.38e6	inactive
CG7126	DRSC39071	4.14e5	4.11e5	1.24e6	1.51e6	inactive
bowl	DRSC00805	4.92e5	7.00e5	7.24e5	7.87e5	inactive
bowl	DRSC28379	9.26e5	7.95e5	1.46e6	1.36e6	inactive
Pgm2b	DRSC05978	6.91e5	9.70e5	2.20e6	2.31e6	inactive
Pgm2b	DRSC26452	3.21e5	2.37e5	7.55e5	6.61e5	inactive
mRpS18B	DRSC02107	9.31e5	8.65e5	1.86e6	1.93e6	inactive
CG4998	DRSC10466	1.54e5	1.42e5	6.98e5	1.00e6	inactive
CG4998	DRSC22911	6.27e5	1.50e6	1.23e6	2.32e6	inactive
CG11247	DRSC11643	3.68e5	3.37e5	2.16e6	2.57e6	inactive
CG11247	DRSC21901	7.09e5	7.69e5	1.06e6	1.09e6	inactive
CG11247	DRSC26558	4.64e5	5.31e5	7.72e5	6.63e5	inactive
Cul2	DRSC03710	7.00e5	5.95e5	1.81e6	1.26e6	inactive
CG17026	DRSC10237	5.11e5	6.82e5	1.30e6	1.65e6	inactive
CG17026	DRSC24059	1.06e6	8.88e5	8.07e5	9.09e5	inactive
CG17026	DRSC39282					inactive
gwl	DRSC16305	51182	36348	3.32e5	3.66e5	inactive
gwl	DRSC36638					inactive
gwl	DRSC36639					inactive
CG10621	DRSC02078	1.03e5	1.23e5	1.28e6	1.17e6	inactive
pod1	DRSC18362	50410	59134	4.90e5	3.49e5	inactive
pod1	DRSC23544	4.89e5	5.13e5	5.08e5	7.11e5	inactive
TkR99D	DRSC16881	4.24e5	3.63e5	2.09e6	2.69e6	inactive
Hibch	DRSC15705	24131	49490	3.60e5	3.92e5	inactive
Hibch	DRSC27536	3.19e5	2.68e5	2.18e5	2.67e5	inactive
Send1	DRSC00482	83681	69432	5.36e5	6.49e5	inactive
Send1	DRSC27719	2.87e5	3.37e5	5.67e5	5.82e5	inactive
CG1951	DRSC15403	1.29e5	1.04e5	8.86e5	6.73e5	inactive
CG1951	DRSC36957					inactive
CG1951	DRSC36958					inactive
CG13117	DRSC02215	2.47e5	2.51e5	1.50e6	1.33e6	inactive
CG13117	DRSC26983	5.32e5	5.83e5	7.21e5	6.04e5	inactive
CG33268	DRSC10143	3.12e5	3.18e5	2.37e6	2.10e6	inactive
Acam + CG17770	DRSC14110	1.80e5	1.97e5	1.79e6	2.04e6	inactive
Acam + CG17770	DRSC15264	1.60e5	1.67e5	2.57e6	2.75e6	inactive
Acam + CG17770	DRSC24252	8.12e5	8.95e5	6.37e5	7.36e5	inactive
Acam + CG17770	DRSC29529	4.64e5	6.25e5	6.65e5	6.65e5	inactive
Acam + CG17770	DRSC38964	4.81e5	4.37e5	1.21e6	1.15e6	inactive
PolZ1	DRSC06800	1.15e6	3.83e5	2.83e6	1.19e6	inactive
PolZ1	DRSC28574	6.59e5	7.50e5	1.30e6	1.61e6	inactive
